Laboratory results from article doi:10.1101/2020.08.13.249029.

Protein sequences, listed by entry. Tags and fused reporters are not part of them.
UniProt Q13185: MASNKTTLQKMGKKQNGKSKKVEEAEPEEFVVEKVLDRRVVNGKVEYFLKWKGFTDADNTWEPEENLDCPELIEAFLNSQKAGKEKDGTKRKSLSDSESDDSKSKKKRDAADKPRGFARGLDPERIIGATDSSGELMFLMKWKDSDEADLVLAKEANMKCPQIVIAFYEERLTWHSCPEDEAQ
UniProt P45973: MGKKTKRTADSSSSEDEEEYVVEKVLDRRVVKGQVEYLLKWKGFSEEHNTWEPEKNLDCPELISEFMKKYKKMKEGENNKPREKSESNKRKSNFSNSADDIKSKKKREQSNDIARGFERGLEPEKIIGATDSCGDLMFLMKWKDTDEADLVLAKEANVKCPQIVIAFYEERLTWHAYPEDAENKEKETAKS
UniProt Q92786: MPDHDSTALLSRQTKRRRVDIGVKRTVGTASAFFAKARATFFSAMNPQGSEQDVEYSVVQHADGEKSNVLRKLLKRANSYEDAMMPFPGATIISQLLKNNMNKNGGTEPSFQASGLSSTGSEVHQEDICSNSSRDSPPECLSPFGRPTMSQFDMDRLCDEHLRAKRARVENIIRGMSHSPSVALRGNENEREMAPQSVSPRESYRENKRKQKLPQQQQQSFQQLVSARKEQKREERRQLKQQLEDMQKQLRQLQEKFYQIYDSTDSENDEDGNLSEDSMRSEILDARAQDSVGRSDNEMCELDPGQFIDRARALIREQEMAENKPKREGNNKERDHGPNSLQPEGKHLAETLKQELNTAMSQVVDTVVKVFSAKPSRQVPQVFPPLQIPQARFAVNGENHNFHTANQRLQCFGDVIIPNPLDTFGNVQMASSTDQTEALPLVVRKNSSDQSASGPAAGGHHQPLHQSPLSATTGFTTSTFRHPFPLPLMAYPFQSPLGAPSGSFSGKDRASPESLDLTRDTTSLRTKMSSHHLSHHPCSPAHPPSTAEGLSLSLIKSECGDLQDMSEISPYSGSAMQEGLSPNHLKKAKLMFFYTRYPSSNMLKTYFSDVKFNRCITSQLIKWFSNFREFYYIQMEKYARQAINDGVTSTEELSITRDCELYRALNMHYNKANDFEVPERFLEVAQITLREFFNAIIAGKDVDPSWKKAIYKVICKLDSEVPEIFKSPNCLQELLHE
UniProt Q8TAQ2: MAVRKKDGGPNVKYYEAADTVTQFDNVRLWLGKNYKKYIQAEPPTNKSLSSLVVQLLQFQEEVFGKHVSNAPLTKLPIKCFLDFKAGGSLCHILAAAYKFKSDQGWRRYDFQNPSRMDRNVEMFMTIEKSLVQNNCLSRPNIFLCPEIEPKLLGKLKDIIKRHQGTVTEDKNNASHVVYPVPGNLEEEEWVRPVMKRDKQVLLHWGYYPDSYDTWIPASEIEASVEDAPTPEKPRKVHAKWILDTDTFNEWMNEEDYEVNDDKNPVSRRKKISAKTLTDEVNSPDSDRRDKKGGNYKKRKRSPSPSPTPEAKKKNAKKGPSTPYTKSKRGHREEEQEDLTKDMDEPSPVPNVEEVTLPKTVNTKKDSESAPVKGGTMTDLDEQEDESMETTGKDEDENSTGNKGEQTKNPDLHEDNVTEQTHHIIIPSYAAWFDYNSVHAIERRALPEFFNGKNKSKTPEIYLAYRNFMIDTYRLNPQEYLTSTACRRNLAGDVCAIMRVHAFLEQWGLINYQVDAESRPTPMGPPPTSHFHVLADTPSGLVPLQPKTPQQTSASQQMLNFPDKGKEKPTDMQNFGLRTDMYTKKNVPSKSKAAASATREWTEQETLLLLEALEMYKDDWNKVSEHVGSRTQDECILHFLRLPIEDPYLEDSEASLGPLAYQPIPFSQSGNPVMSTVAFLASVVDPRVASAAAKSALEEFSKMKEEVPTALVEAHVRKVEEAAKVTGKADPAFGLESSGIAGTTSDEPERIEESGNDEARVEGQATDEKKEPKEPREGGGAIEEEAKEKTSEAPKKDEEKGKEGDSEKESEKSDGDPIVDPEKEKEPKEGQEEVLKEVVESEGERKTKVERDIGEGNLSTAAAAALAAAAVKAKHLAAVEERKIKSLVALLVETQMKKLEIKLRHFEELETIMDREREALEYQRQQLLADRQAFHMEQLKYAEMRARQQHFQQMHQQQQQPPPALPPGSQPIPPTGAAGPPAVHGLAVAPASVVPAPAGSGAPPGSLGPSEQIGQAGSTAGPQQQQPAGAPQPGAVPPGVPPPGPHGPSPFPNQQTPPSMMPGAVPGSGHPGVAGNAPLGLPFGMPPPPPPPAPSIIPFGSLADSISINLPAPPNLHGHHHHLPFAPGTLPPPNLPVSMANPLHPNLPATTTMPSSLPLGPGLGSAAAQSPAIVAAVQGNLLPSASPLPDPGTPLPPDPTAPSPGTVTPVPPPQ
UniProt P15884: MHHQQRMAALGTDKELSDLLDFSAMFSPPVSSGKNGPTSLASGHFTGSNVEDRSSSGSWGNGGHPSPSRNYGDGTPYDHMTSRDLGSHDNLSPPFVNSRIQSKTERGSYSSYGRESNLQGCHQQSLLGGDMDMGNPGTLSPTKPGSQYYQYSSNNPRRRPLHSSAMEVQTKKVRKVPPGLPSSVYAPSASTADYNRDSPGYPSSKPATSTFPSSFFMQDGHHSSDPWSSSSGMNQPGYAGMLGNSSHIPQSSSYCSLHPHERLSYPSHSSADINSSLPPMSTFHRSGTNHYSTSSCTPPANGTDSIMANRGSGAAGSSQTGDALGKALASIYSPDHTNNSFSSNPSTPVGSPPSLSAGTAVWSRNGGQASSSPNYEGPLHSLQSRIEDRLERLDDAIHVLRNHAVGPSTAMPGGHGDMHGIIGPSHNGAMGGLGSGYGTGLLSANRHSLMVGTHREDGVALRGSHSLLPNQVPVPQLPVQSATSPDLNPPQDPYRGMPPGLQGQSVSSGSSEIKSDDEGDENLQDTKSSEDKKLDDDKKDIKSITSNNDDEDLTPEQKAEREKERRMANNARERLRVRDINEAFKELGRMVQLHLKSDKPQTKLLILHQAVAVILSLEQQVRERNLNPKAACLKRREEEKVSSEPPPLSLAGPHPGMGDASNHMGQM
UniProt Q99081: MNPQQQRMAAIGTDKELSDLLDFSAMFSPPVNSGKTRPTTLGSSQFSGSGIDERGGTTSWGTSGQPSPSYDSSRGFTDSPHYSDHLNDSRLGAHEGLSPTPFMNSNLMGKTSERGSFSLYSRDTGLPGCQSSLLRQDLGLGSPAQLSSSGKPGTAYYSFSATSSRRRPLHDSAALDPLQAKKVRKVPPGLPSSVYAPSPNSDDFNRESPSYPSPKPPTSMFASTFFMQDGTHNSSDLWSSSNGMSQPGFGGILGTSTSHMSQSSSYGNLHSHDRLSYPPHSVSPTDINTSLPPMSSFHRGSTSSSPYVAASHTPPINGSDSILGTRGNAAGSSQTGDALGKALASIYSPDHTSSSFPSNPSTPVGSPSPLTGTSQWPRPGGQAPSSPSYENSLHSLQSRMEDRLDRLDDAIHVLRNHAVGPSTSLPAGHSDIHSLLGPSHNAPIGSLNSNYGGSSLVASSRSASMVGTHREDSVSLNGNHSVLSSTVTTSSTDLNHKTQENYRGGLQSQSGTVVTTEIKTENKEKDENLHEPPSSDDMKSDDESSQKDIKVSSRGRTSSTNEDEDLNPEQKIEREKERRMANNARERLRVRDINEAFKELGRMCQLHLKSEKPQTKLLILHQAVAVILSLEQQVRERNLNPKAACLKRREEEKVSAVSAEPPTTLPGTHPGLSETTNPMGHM
UniProt Q13263: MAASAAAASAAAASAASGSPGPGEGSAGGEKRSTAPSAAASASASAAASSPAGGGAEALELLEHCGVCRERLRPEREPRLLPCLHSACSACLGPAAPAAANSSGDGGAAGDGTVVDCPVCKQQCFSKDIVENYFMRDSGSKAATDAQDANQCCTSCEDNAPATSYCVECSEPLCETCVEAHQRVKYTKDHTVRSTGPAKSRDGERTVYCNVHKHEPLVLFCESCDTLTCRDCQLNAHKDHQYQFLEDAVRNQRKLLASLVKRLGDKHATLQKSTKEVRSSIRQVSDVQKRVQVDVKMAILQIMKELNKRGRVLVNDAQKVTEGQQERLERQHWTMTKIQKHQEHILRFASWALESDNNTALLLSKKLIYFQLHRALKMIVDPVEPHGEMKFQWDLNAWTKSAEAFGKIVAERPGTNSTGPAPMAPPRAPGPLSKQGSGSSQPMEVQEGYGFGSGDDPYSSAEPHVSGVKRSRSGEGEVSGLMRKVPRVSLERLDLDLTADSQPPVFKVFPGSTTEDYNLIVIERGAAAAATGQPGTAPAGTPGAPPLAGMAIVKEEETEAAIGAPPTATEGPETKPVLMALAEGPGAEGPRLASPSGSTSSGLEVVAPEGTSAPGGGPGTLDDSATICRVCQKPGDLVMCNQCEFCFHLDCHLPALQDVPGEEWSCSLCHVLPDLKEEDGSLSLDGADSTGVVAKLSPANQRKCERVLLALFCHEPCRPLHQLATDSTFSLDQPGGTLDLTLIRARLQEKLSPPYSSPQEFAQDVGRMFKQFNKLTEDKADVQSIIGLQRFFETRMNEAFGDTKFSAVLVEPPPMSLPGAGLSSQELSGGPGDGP

Molecular target: T1, ASCL1 (human (endogenous in NCI-H2107)) (UniProt P50553)
T1 sequence: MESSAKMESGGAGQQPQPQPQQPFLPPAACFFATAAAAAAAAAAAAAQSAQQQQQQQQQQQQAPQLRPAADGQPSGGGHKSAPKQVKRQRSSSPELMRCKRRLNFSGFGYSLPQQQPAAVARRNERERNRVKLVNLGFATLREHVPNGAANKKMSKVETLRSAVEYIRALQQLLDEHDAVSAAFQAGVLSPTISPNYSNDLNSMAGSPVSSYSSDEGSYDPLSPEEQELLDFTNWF
Assay: affinity purification with mass spectrometry

binding: binds
Molecule: CBX3 (from UniProt Q13185 1-183)

binding: binds
Molecule: CBX5 (from UniProt P45973 1-191)

binding: binds
Molecule: PROX1 (from UniProt Q92786 1-737)

binding: binds
Molecule: SMARCC2 (from UniProt Q8TAQ2 1-1214)

binding: binds
Molecule: TCF4 (from UniProt P15884 1-667)

binding: binds
Molecule: TCF12 (from UniProt Q99081 1-682)

binding: binds
Molecule: TRIM28 (from UniProt Q13263 1-835)

binding: binds
B1: NKX2-1 (protein, UniProt P43699 1-371)
chain: MSMSPKHTTPFSVSDILSPLEESYKKVGMEGGGLGAPLAAYRQGQAAPPTAAMQQHAVGHHGAVTAAYHMTAAGVPQLSHSAVGGYCNGNLGNMSELPPYQDTMRNSASGPGWYGANPDPRFPAISRFMGPASGMNMSGMGGLGSLGDVSKNMAPLPSAPRRKRRVLFSQAQVYELERRFKQQKYLSAPEREHLASMIHLTPTQVKIWFQNHRYKMKRQAKDKAAQQQLQQDSGGGGGGGGTGCPQQQQAQQQSPRRVAVPVLVKDGKPCQAGAPAPGAASLQGHAQQQAQHQAQAAQAAAAAISVGSGGAGLGAHPGHQPGSAGQSPDLAHHAASPAALQGQVSSLSHLNSSGSDYGTMSCSTLLYGRTW

These are yes or no findings as the source states them, for the method shown. In cells and extracts the contact can be indirect. A yes stands for co-enrichment or nearness to the bait. Other partners may have been found. One block for each molecule: values may come before it.
